No constants are given. Whether binding was seen depends on the method and setting. Binding seen in cells or lysates may run through a third protein. Here binding means that the protein was enriched with, or labelled near, the bait; the list need not be complete.
T1: Huntingtin Yeast Two-Hybrid Protein K, recombinant 6HN-HYPK (UniProt Q9NX55)
T1 sequence: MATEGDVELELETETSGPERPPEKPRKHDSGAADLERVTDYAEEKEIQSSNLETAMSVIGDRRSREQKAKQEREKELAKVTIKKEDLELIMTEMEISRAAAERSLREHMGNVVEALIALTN

B1: Lamin B2 (HeLa) (protein, UniProt Q03252 1-620)
chain: MSPPSPGRRREQRRPRAAATMATPLPGRAGGPATPLSPTRLSRLQEKEELRELNDRLAHYIDRVRALELENDRLLLKISEKEEVTTREVSGIKALYESELADARRVLDETARERARLQIEIGKLRAELDEVNKSAKKREGELTVAQGRVKDLESLFHRSEVELAAALSDKRGLESDVAELRAQLAKAEDGHAVAKKQLEKETLMRVDLENRCQSLQEELDFRKSVFEEEVRETRRRHERRLVEVDSSRQQEYDFKMAQALEELRSQHDEQVRLYKLELEQTYQAKLDSAKLSSDQNDKAASAAREELKEARMRLESLSYQLSGLQKQASAAEDRIRELEEAMAGERDKFRKMLDAKEQEMTEMRDVMQQQLAEYQELLDVKLALDMEINAYRKLLEGEEERLKLSPSPSSRVTVSRATSSSSGSLSATGRLGRSKRKRLEVEEPLGSGPSVLGTGTGGSGGFHLAQQASASGSVSIEEIDLEGKFVQLKNNSDKDQSLGNWRIKRQVLEGEEIAYKFTPKYILRAGQMVTVWAAGAGVAHSPPSTLVWKGQSSWGTGESFRTVLVNADGEEVAMRTVKKSSVMRENENGEEEEEEAEFGEEDLFHQQGDPRTTSRGCYVM
B2: Serologically defined colon cancer antigen 1 (protein, UniProt O60524 1-1076)
chain: MKSRFSTIDLRAVLAELNASLLGMRVNNVYDVDNKTYLIRLQKPDFKATLLLESGIRIHTTEFEWPKNMMPSSFAMKCRKHLKSRRLVSAKQLGVDRIVDFQFGSDEAAYHLIIELYDRGNIVLTDYEYVILNILRFRTDEADDVKFAVRERYPLDHARAAEPLLTLERLTEIVASAPKGELLKRVLNPLLPYGPALIEHCLLENGFSGNVKVDEKLETKDIEKVLVSLQKAEDYMKTTSNFSGKGYIIQKREIKPSLEADKPVEDILTYEEFHPFLFSQHSQCPYIEFESFDKAVDEFYSKIEGQKIDLKALQQEKQALKKLDNVRKDHENRLEALQQAQEIDKLKGELIEMNLQIVDRAIQVVRSALANQIDWTEIGLIVKEAQAQGDPVASAIKELKLQTNHVTMLLRNPYLLSEEEDDDVDGDVNVEKNETEPPKGKKKKQKNKQLQKPQKNKPLLVDVDLSLSAYANAKKYYDHKRYAAKKTQKTVEAAEKAFKSAEKKTKQTLKEVQTVTSIQKARKVYWFEKFLWFISSENYLIIGGRDQQQNEIIVKRYLTPGDIYVHADLHGATSCVIKNPTGEPIPPRTLTEAGTMALCYSAAWDARVITSAWWVYHHQVSKTAPTGEYLTTGSFMIRGKKNFLPPSYLMMGFSFLFKVDESCVWRHQGERKVRVQDEDMETLASCTSELISEEMEQLDGGDTSSDEDKEEHETPVEVELMTQVDQEDITLQSGRDELNEELIQEESSEDEGEYEEVRKDQDSVGEMKDEGEETLNYPDTTIDLSHLQPQRSIQKLASKEESSNSSDSKSQSRRHLSAKERREMKKKKLPSDSGDLEALEGKDKEKESTVHIETHQNTSKNVAAVQPMKRGQKSKMKKMKEKYKDQDEEDRELIMKLLGSAGSNKEEKGKKGKKGKTKDEPVKKQPQKPRGGQRVSDNIKKETPFLEVITHELQDFAVDDPHDDKEEQDLDQQGNEENLFDSLTGQPHPEDVLLFAIPICAPYTTMTNYKYKVKLTPGVQKKGKAAKTALNSFMHSKEATAREKDLFRSVKDTDLSRNIPGKVKVSAPNLLNVKRK
B3: Protein phosphatase 6, regulatory subunit 2 (protein, UniProt Q8R3Q2 1-923)
chain: MFWKFDLNTTSHVDKLLDKEHVTLQELMDEDDILQECKAQNQKLLDFLCRQQCMEELVNLITQDPPQDMEEKVRFKYPNTACELLTCDVPQISDRLGEDESLLNLLYDFLDQEPPLNPLLASFFSKTIGNLIARKTEQVIMFLKKKEKFISQLLKHIGTSALMDLLLRLVSCVEPVGLRQEVLHWLNEEKIIQRLVALIHPHQDEDRQSNASQALCDIIRLGRDQGSQLQETVEPDPLLITLESQDCVEQLLKNMFDGDQTESCLVSGMQVLLALLEPRRVGTEGLVDSFSQGLERSHSVSSSILRGIEPWLKNFHQLLLNPPKKKAILTTIGVLEEPLGNARLHGARLMAALLHTNTPGINQELCRLNTMDLLLDLFFKYTWNNFLHLQVELCIAAILSHAAREEQAEASGSDGKVEPLQGSGDGNGKLETTPSITSPPENTMVTHLFQKCCLVQRILEAWEANDHTQAAGGMRRGNMGHLTRIANAVVQNLEQGPVQAHISEVIRGLPADCRGRWESFVEETLMETNRRNTVDLAFSEYQIQQMTANFVDQFGFNDEEFADQDDNINAPFDRIAEINFNIEADEDSPSAALFEACCSDRIQPFDDDEEEDIWEDDETRCAARVMARARFGAPHVSDNYSKNALEHGGQDRKTGSAVARNVPGLAAPSSPTQKEGPRSESDSAGTTWTAVFDEPVNPLSATPGAARDVGSSAWAAGPSVVEEKGWAKFTDFQPFCCSETGPRCSSPVDMDHSNAEGGQSPGPEKTFGPTSPCAWNVCVTRKAPLVASDSSSSGGSDSEDDEKAAGAVEAVCTGHTGKVSPPPRTAEAAVGRAECPDSTVLAPACPAPSEVTISPAVATIAPSKAGSPTATIVVSSSVAAAVPPGPIVAVTTAAPAIVATLGTMTKDRKADALPEGAALNGPV

Biological target: T1, Huntingtin Yeast Two-Hybrid Protein K, recombinant 6HN-HYPK
Test: affinity purification with mass spectrometry; 200 µg purified 6HN-HYPK bound to a Ni-NTA column as bait; ~800 µg soluble cell lysate (HeLa, Neuro2A, STHdhQ7/HdhQ7 or STHdhQ111/HdhQ111) as prey overnight; washed with 50 mM Tris pH 8.0, 150 mM NaCl, 1.0% NP-40; eluted with 300 mM imidazole; 1D or 2D SDS-PAGE, unique bands or spots by MALDI-TOF/TOF; only the target purified

Row | binding | Binder
1 | binds | B1
2 | binds | B2
3 | binds | B3
